# The list shows a part of the results. These are further read-outs of the screen, such as a control signal, another cell line or another target. No call is given for them. Most of these compounds were active or inconclusive in the main read-out, so they are no random draw. The note in brackets gives the kind of curve behind each potency; many fits are weak.
# Test: IkB Signaling
# Conditions: ABC-DLBCL IkBa-CBG/CBR dual luciferase ratio (green luciferase fused to IkBa over red control in OCI-Ly3 lymphoma cells), 4 h
# In short: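 Curves were fitted separately to fusion (green), unfused (red) and ratio luminescence, then classed by r2, magnitude and activity. Cells: OCI-Ly3, 4 h compound plus doxycycline at 37C; 10 uM MG-132 defined full response.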
# [1] = measured here: control luc red channel unless noted
# [2] = measured here: IkB-luc green channel
# [3] = measured here: control luc red channel
smiles,measurement,setting,value
CCOC(=O)c1c(C)oc2nc(C)nc(Nc3ccc(CC)cc3)c12,AC50,[1],"0.501 µM [rising, full curve, poor fit]"
COc1cccc2c1Oc1ncccc1N(C(=O)Nc1ccc(F)c(Cl)c1)C2,AC50,[1],"0.316 µM [rising, partial curve]"
Cc1ccc(C)c(CN2C(=O)c3ccccc3S(=O)c3ccc(C(=O)NCc4ccccc4)cc32)c1 (stereo not drawn),AC50,[1],"5.01 µM [falling, partial curve]"
COc1ccccc1Cc1nc2ccccc2[nH]c1=O,AC50,[1],"3.16 µM [rising, partial curve, poor fit]"
O=C(CSc1ncc(-c2ccc(F)cc2)n1Cc1ccco1)Nc1ccc2c(c1)OCO2,AC50,[2],"39.8 µM [falling, single point]"
same,AC50,[3],"0.126 µM [falling, full curve]"
CN(C)S(=O)(=O)c1ccc(C(=O)N2CC(=O)Nc3ccc(Br)cc3C2c2ccc(F)cc2)cc1 (stereo not drawn),AC50,[1],"12.6 µM [falling, partial curve]"
CCOc1cc(CNc2ccc(O)cc2)ccc1OCc1ccc(Cl)cc1,AC50,[1],"20 µM [falling, partial curve]"
CCOc1ccc(CC(=O)NCCc2sc3nc(-c4ccc(OC)cc4)nn3c2C)cc1,AC50,[1],"15.8 µM [falling, partial curve]"
CCN1CCN(c2c(S(=O)(=O)c3ccc(C)c(C)c3)cnc3cc(OC)c(OC)cc23)CC1,AC50,[1],"39.8 µM [falling, single point]"
CCN(CC)S(=O)(=O)c1nnc(NC(=O)COc2ccc(Cl)cc2)s1,AC50,[1],"31.6 µM [falling, single point]"
Cc1ccc(C)c(N2C(=O)N(Cc3cc(=O)n4ccccc4n3)c3ccccc3S2(=O)=O)c1,AC50,[1],"10 µM [falling, partial curve]"
CCc1cccc(NC(=O)Nc2csc3c2CCCC3)c1,AC50,[1],"31.6 µM [rising, partial curve, poor fit]"
CCn1c(SCC(=O)Nc2nccs2)nnc1-c1ccc(S(=O)(=O)N2CCCCC2)cc1,AC50,[1],"25.1 µM [falling, partial curve]"
Cc1ccc(CNC(=O)c2ccc3c(c2)nc(C)n3-c2cc(C)cc(C)c2)cc1,AC50,[1],"39.8 µM [falling, single point]"
COc1ccc(-n2nnnc2SCC(=O)c2ccc(O)c(O)c2)cc1,AC50,[1],"15.8 µM [falling, partial curve]"
COc1cc(C)ccc1OCCSc1nc2ccc(NC(=O)c3ccc(F)cc3)cc2s1,AC50,[1],"15.8 µM [falling, partial curve]"
CCCCOc1ccc(C(=O)Nc2ccc(-c3nc4ccccc4s3)cc2C)cc1,AC50,[1],"2.51 µM [rising, full curve]"
COc1cc(OC)cc(C(=O)Nc2ccc3nc(N4CCCCC4)cc(C)c3c2)c1,AC50,[1],"7.94 µM [falling, full curve]"
COc1ccc(Cl)cc1NC(=O)CN(C(=O)c1ccco1)C1CCCCC1,AC50,[1],"15.8 µM [falling, partial curve]"
CC(C)Cn1c(=O)c2ccccc2n2c(CCC(=O)N3CCN(c4ccccc4F)CC3)nnc12,AC50,[1],"25.1 µM [falling, partial curve]"
Cc1ccc2nc(-c3ccc(O)cc3)c(Nc3ccc4c(c3)OCCO4)n2c1,AC50,[1],"10 µM [falling, partial curve]"
O=C(NCc1ccccc1Cl)C(=O)NCC(c1cccs1)S(=O)(=O)c1cccs1 (stereo not drawn),AC50,[1],"15.8 µM [falling, partial curve]"
COc1ccccc1N1CCN(C(=O)c2cn(-c3ccccc3)nc2-c2cccnc2)CC1,AC50,[1],"15.8 µM [falling, partial curve]"
Cc1cc(C)n(CCc2nc3c4ccccc4nc(N4CCN(c5ccccc5F)CC4)n3n2)n1,AC50,[1],"1 µM [falling, partial curve]"
Cc1ccc(NC(=O)/C(C#N)=C/c2ccc(C)o2)cc1,AC50,[1],"12.6 µM [falling, partial curve]"
CC(C)CCNC(=O)c1ccc2c(c1)NC(=O)C(CS(=O)(=O)Cc1cccc(Br)c1)N2 (stereo not drawn),AC50,[1],"15.8 µM [falling, partial curve]"
COc1ccc(-c2cc(C(F)F)nc(-n3nc(C)cc3C)n2)cc1,AC50,[1],"31.6 µM [falling, single point]"
CCOC(=O)C1CCC(CN(Cc2ccc(Cl)cc2)S(=O)(=O)c2ccc(Br)cc2)CC1 (stereo not drawn),AC50,[1],"25.1 µM [falling, single point]"
COc1ccc(-c2onc(C)c2C)cc1S(=O)(=O)N(C)Cc1ccco1,AC50,[1],"39.8 µM [falling, single point]"
CCS(=O)(=O)N1CCc2cc(C(=O)NCCc3ccccc3)ccc21,AC50,[1],"0.0501 µM [falling, full curve]"
COc1ccc(NC(=O)c2sc3nc(C)c(C(=O)Nc4ccc(C)cc4C)c(-c4ccc(C)o4)c3c2N)cc1,AC50,[1],"3.98 µM [falling, partial curve]"
COc1cccc(C(=O)Nc2cc(C)c3c(=O)oc4ccccc4c3n2)c1,AC50,[1],"1.58 µM [rising, full curve]"
Cc1ccc(Nc2nc(C)cc(C)n2)c(C(=O)O)c1,AC50,[1],"0.794 µM [rising, full curve]"
CCc1ccc(NC(=O)CN2C(=O)C3(SCC(=O)N3c3ccccc3)c3ccccc32)cc1 (stereo not drawn),AC50,[1],"12.6 µM [falling, partial curve]"
CNc1ccc(O)cc1,AC50,[2],"7.94 µM [rising, partial curve, poor fit]"
same,AC50,[3],"12.6 µM [falling, partial curve]"
Cc1ccc(Cl)cc1NC(=O)CSC1=Nc2ccccc2C2=NC(Cc3ccccc3)C(=O)N12 (stereo not drawn),AC50,[1],"39.8 µM [falling, partial curve]"
COc1ccc(C(c2sc3nc(C)nn3c2O)N2CC(C)OC(C)C2)cc1OC (stereo not drawn),AC50,[1],"0.398 µM [falling, full curve]"
O=C(CCSc1nc(-c2ccco2)cc(C(F)(F)F)n1)N1CCN(c2ccccc2)CC1,AC50,[1],"12.6 µM [falling, partial curve]"
CCCCN(CCCC)CC(O)Cn1cc(/C=C/C(=O)c2ccccc2)c2ccccc21 (stereo not drawn),AC50,[1],"10 µM [falling, partial curve]"
COc1cccc(-c2nc(CSCC(=O)NCCc3ccc(Cl)cc3)c(C)o2)c1,AC50,[1],"12.6 µM [falling, partial curve]"
O=C(Nc1ccc2c(c1)OCO2)C1Cc2ccccc2CN1S(=O)(=O)c1cccs1 (stereo not drawn),AC50,[1],"15.8 µM [falling, partial curve]"
C=CCSc1nnc(-c2cc(Br)ccc2N)c(=O)[nH]1,AC50,[1],"12.6 µM [falling, partial curve]"
CCOC(=O)c1cc(-c2ccccc2)n(CC(=O)N(C)c2ccc(OC)cc2)c1C,AC50,[1],"31.6 µM [falling, partial curve]"
CCN(CCCNC(=O)c1cc2cc3ccc(C)cc3nc2s1)c1ccccc1,AC50,[1],"15.8 µM [falling, partial curve]"
CCOC(=O)c1c(NC(=O)CSc2nnc(-c3cccnc3)n2Cc2ccco2)sc(C)c1C,AC50,[1],"31.6 µM [falling, partial curve]"
CCOC(=O)CCNC(=O)Nc1ccc2nc(C)n(Cc3ccccc3Cl)c(=O)c2c1,AC50,[1],"25.1 µM [falling, partial curve]"
Cc1ccc(NC(=O)c2oc3ccc(S(=O)(=O)N(C)C4CCCCC4)cc3c2C)cc1Cl,AC50,[1],"12.6 µM [falling, partial curve]"
O=S(=O)(c1cccc(F)c1)N1CCC(c2nc3ccccc3s2)CC1,AC50,[1],"0.2 µM [rising, full curve]"
COc1ccc(S(=O)(=O)N(CCc2ccccc2)CC(=O)Nc2cccc(OC)c2)cc1,AC50,[1],"12.6 µM [falling, partial curve]"
CCOc1ccc2nc(N3CCC(C(=O)N4CCN(C(=O)c5ccco5)CC4)CC3)sc2c1,AC50,[1],"15.8 µM [falling, partial curve]"
CCOC(=O)c1cccc(NC(=O)C2CCN(S(=O)(=O)c3ccc4c(c3)oc(=O)n4C)CC2)c1,AC50,[1],"15.8 µM [falling, partial curve]"
CC(=O)OCC(=O)[C@@]1(O)[C@H](C)C[C@@H]2[C@H]3CCC4=CC(=O)C=C[C@]4(C)[C@]3(F)[C@@H](O)C[C@@]21C,AC50,[1],"5.01 nM [rising, full curve] [measured here: IkB-luc green channel]"
COc1ccccc1N1CCN(c2ncnc3c2cnn3C)CC1,AC50,[1],"0.0126 µM [falling, full curve, poor fit]"
CCOc1ccc(C2c3cc(OCC)c(OCC)cc3CC(=O)N2c2ccc(C(=O)O)cc2)cc1OCC (stereo not drawn),AC50,[1],"20 µM [falling, partial curve]"
COc1ccc(N=[N+]([O-])c2ccc(OC)cc2)cc1,AC50,[1],"5.01 µM [falling, full curve, poor fit]"
CCc1ccc(C(=O)COC(=O)C(Cc2c[nH]c3ccccc23)NC(=O)c2ccc(Br)cc2)cc1 (stereo not drawn),AC50,[1],"3.98 µM [falling, full curve]"
CCOc1ccc(C2CC(=O)c3c([nH]c(C(=O)OCc4ccccc4)c3C)C2)cc1 (stereo not drawn),AC50,[1],"1 µM [rising, full curve]"
COc1ccc(CCN2C(=O)c3oc4ccc(F)cc4c(=O)c3C2c2ccc(C(C)(C)C)cc2)cc1 (stereo not drawn),AC50,[1],"0.398 µM [falling, full curve, poor fit]"
CCCn1nnc(NC(=O)c2cc3ccccc3o2)n1,AC50,[1],"10 µM [falling, partial curve]"
Cc1ccc(C(=O)Nc2ccc(O)c(C(=O)O)c2)o1,AC50,[1],"20 µM [falling, partial curve]"
COc1ccc(-c2nc3sc(CCNC(=O)c4cc(Cl)ccc4OC)c(C)n3n2)cc1,AC50,[1],"25.1 µM [falling, partial curve]"

# Part of the list above, with tabs:
smiles	measurement	setting	value
COc1cc(C)ccc1OCCSc1nc2ccc(NC(=O)c3ccc(F)cc3)cc2s1	AC50	[1]	15.8 µM [falling, partial curve]
CCc1ccc(C(=O)COC(=O)C(Cc2c[nH]c3ccccc23)NC(=O)c2ccc(Br)cc2)cc1 (stereo not drawn)	AC50	[1]	3.98 µM [falling, full curve]
Cc1ccc(C(=O)Nc2ccc(O)c(C(=O)O)c2)o1	AC50	[1]	20 µM [falling, partial curve]

# Source: PubChem BioAssay AID445 (National Center for Advancing Translational Sciences (NCATS), 2006)
